# Assay results from the supplement of paper PMC9135407.
# Where “and” joins values, the source holds several entries; their conditions need not be identical. Equal entries are not always repeated. Structures can show the parent of a compound that is named as a salt. ± gives the standard deviation of the averaged measurements. The list shows a part of the results. Plates or batches differ in their baseline, so values are only roughly comparable.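 Primary human stellate myofibroblasts activated in culture; inactivation shown by regained lipid droplets. Readout: fraction of Hoechst-counted cells exceeding a per-plate Bodipy threshold, duplicate wells, each plate with DMSO negative and nortriptyline positive controls. Hits: control-normalized score beyond the plate's top-tenth-percentile nortriptyline wells, or among its three best wells. Final well concentrations unstated.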
# Tested on: primary human hepatic stellate cells (donor 1)
# Assay: percent Bodipy-positive cells; higher = more lipid droplet accumulation
# Settings: 48 h
# Protocol: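 Primary lipid accumulation screen in primary human hepatic stellate cell myofibroblasts (donor 1, passage 8) in 384-well plates. 100 nL of library compound was pin-transferred into 30 µL medium in duplicate, and cells were treated for 48 h. The 'Scaled' score combines distance from plate baseline, toxicity and reproducibility penalties, and is normalised to nortriptyline (positive) and DMSO (negative) controls on each plate. A hit is defined as scaled >0.85 or among the top 3 wells per plate.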
# [1] = library stock concentration: 10 mM
# [2] = library stock concentration: 3.33 mM
# [3] = library stock concentration: 1 mM
# [4] = library stock concentration: 80 uM
# [5] = library stock concentration: 400 uM
# [6] = library stock concentration: 2 mM
# [7] = library stock concentration: 4.9 mM
compound,measurement,setting,value
CC(=O)N(O)[C@@H]1c2cc(C#N)ccc2OC(C)(C)[C@H]1O,percent Bodipy-positive cells,[1],9.87 ± 0.25%
O=C(CCc1ccc(O)cc1)c1c(O)cc(O)cc1O[C@@H]1O[C@H](CO)[C@@H](O)[C@H](O)[C@H]1O [Phlorizin],percent Bodipy-positive cells,[2],13.6 ± 5%
same,percent Bodipy-positive cells,[1],11.9 ± 2.1%
C[C@]12CCC(=O)C=C1CC[C@@H]1[C@@H]2[C@@H](O)C[C@@]2(C)[C@H]1CC[C@]2(O)C(=O)CO,percent Bodipy-positive cells,[1],21.7 ± 2.8%
C[C@]12CCC(=O)C=C1CC[C@@H]1[C@@H]2[C@@H](O)C[C@@]2(C)[C@H]1CC[C@]2(O)C(=O)CO [Hydrocortisone],percent Bodipy-positive cells,[2],6.66 ± 1.9%
C[C@]12CCC(=O)C=C1CC[C@@H]1[C@@H]2[C@@H](O)C[C@@]2(C)[C@H]1CC[C@]2(O)C(=O)CO [Hydrocortisone base],percent Bodipy-positive cells,,17.8 ± 0.88%
O=C(O)CCC/C=C\C[C@@H]1[C@@H](CCC(=O)CCc2ccccc2)[C@H](O)C[C@@H]1O [15-keto Latanoprost (free acid)],percent Bodipy-positive cells,[3],19.1 ± 2.1%
CCCCC[C@H](O)/C=C/[C@@H]1[C@@H](C/C=C\CCCCN(C)C)[C@@H](O)C[C@H]1O [Prostaglandin F2.alpha. dimethyl amine],percent Bodipy-positive cells,[3],16.1 ± 5.1%
CCCCCCC[N+](CC)(CC)CCCCc1ccc(Cl)cc1 [Clofilium tosylate],percent Bodipy-positive cells,,18.5 ± 10%
CNCCCC1c2ccccc2C=Cc2ccccc21 [Protryptyline hydrochloride],percent Bodipy-positive cells,library stock concentration: 6.7 mM,72.2 ± 2.9%
CCOC(=O)C1=C[C@@H](OC(CC)CC)[C@H](NC(C)=O)[C@@H](N)C1,percent Bodipy-positive cells,[1],41.7 ± 5.9%
CCOC(=O)C1=C[C@@H](OC(CC)CC)[C@H](NC(C)=O)[C@@H](N)C1 [Oseltamivir tartrate],percent Bodipy-positive cells,[1],45.2 ± 1.1%
CCOC(=O)C1=C[C@@H](OC(CC)CC)[C@H](NC(C)=O)[C@@H](N)C1 [Oseltamivir],percent Bodipy-positive cells,library stock concentration: 6.4 mM,8.6 ± 1.9%
C[N+]1(CCCCC[N+]2(C)CCCC2)CCCC1 [Pentolinium di[L(+)-tartrate]],percent Bodipy-positive cells,[1],21.4 ± 3.3%
C[N+]1(CCCCC[N+]2(C)CCCC2)CCCC1 [Pentolinium bitartrate],percent Bodipy-positive cells,,36.5 ± 18%
C[N+]1(CCCCC[N+]2(C)CCCC2)CCCC1 [Pentolinium tartrate],percent Bodipy-positive cells,[1],32.6 ± 3.6%
CC[C@]1(O)C[C@@H]2CN(CCc3c([nH]c4ccccc34)[C@@](C(=O)OC)(c3cc4c(cc3OC)N(C)[C@@H]3C45CCN4CC=C[C@](CC)([C@H]45)[C@H](OC(C)=O)[C@]3(O)C(=O)OC)C2)C1 (stereo partly drawn) [Vinblastine],percent Bodipy-positive cells,[1],90.84 ± 0.28%
O=C(Nc1ccccc1)c1cc([N+](=O)[O-])ccc1Cl,percent Bodipy-positive cells,[3],8.99 ± 1.2%
same,percent Bodipy-positive cells,[2],15.9 ± 1.7%
C=C1C(=O)O[C@@H]2/C=C(\C)CC/C=C(\C)CC[C@@H]12 [Costunolide],percent Bodipy-positive cells,[2],11.7 ± 0.71%
Cc1onc(-c2ccccc2)c1-c1ccc(S(N)(=O)=O)cc1,percent Bodipy-positive cells,[1],9.21 ± 1.4%
Cc1onc(-c2ccccc2)c1-c1ccc(S(N)(=O)=O)cc1 [Valdecoxib],percent Bodipy-positive cells,[2],14.2 ± 0.98%
same,percent Bodipy-positive cells,[1],57.6% and 43%
COc1ccc(CCN(C)CCCC(C#N)(c2ccc(OC)c(OC)c2)C(C)C)cc1OC (stereo not drawn) [Verapamyl hydrochloride],percent Bodipy-positive cells,,56.8 ± 2%
COc1ccc(CCN(C)CCCC(C#N)(c2ccc(OC)c(OC)c2)C(C)C)cc1OC (stereo not drawn) [Verapamil hydrochloride],percent Bodipy-positive cells,[1],71.05 ± 0.62%
COc1ccc(CCN(C)CCCC(C#N)(c2ccc(OC)c(OC)c2)C(C)C)cc1OC (stereo not drawn) [Verapamil],percent Bodipy-positive cells,library stock concentration: 4.4 mM,33.3 ± 0.86%
COc1ccc(CCN(C)CCCC(C#N)(c2ccc(OC)c(OC)c2)C(C)C)cc1OC (stereo not drawn) [Verapamil HCl],percent Bodipy-positive cells,[2],61.2 ± 5.8%
same,percent Bodipy-positive cells,[1],62.8 ± 1.8%
CCCc1cc(=O)[nH]c(=S)[nH]1 [Propylthiouracil],percent Bodipy-positive cells,,25.4 ± 4.7%
same,percent Bodipy-positive cells,[2],8.04 ± 5.2%
Cn1cnc(-c2cc3nccc(Oc4ccc(NC(=S)NC(=O)Cc5ccccc5)cc4F)c3s2)c1 [MGCD-265 analog],percent Bodipy-positive cells,[4],8.41 ± 0.87%
same,percent Bodipy-positive cells,[5],9.42 ± 4.5%
same,percent Bodipy-positive cells,[6],11.5 ± 3%
same,percent Bodipy-positive cells,[2],9.9 ± 2.3%
same,percent Bodipy-positive cells,[1],15.2% and 34%
Cc1ccc(-c2ccc3c(ccc4sc5c(c43)NC[C@@H](C)NC5=O)n2)cn1,percent Bodipy-positive cells,[4],12.4 ± 8.3%
same,percent Bodipy-positive cells,[5],14.8 ± 4.1%
same,percent Bodipy-positive cells,[6],65.1 ± 5.6%
c1ccc2c(Cc3c[nH]c4ccccc34)c[nH]c2c1 [Diidolylmethane],percent Bodipy-positive cells,[3],5.41 ± 1.7%
Cc1sc(N)c(C(=O)c2cccc(C(F)(F)F)c2)c1C,percent Bodipy-positive cells,[1],8.96% and 7.41%
COc1ccc(OC)c2c(=S)c3ccccc3[nH]c12,percent Bodipy-positive cells,[1],6.41 ± 0.97%
COc1ccc(-n2[nH]c3c4c(ncc3c2=O)CCCCC4)cc1,percent Bodipy-positive cells,[1],9.16 ± 3%
CCC(=O)N1CCN(c2ccc(-n3c(=O)ccc4cnc5ccc(-c6cnc7ccccc7c6)cc5c43)cc2C(F)(F)F)CC1 [Torin1],percent Bodipy-positive cells,[4],5.45 ± 0.84%
same,percent Bodipy-positive cells,[5],6.36 ± 1.5%
same,percent Bodipy-positive cells,[6],14.1 ± 0.54%
same,percent Bodipy-positive cells,[1],27.3 ± 1.7%
CO/N=C(\C(=O)N[C@@H]1C(=O)N2C(C(=O)OCOC(=O)C(C)(C)C)=C(/C=C\c3scnc3C)CS[C@H]12)c1csc(N)n1 [Cefditoren Pivoxil],percent Bodipy-positive cells,[2],16.4 ± 18%
same,percent Bodipy-positive cells,[1],14 ± 4.5%
CO/N=C(\C(=O)N[C@@H]1C(=O)N2C(C(=O)OCOC(=O)C(C)(C)C)=C(/C=C\c3scnc3C)CS[C@H]12)c1csc(N)n1 [Cefditorin pivoxil],percent Bodipy-positive cells,[1],36.5 ± 16%
CCCCCCCCCCCCCCCCC(=O)NCCO [Heptadecanoyl Ethanolamide],percent Bodipy-positive cells,[3],14.7 ± 9.6%
O=C(OC[C@H]1O[C@@H](OC(=O)c2cc(O)c(O)c(OC(=O)c3cc(O)c(O)c(O)c3)c2)[C@H](OC(=O)c2cc(O)c(O)c(OC(=O)c3cc(O)c(O)c(O)c3)c2)[C@@H](OC(=O)c2cc(O)c(O)c(OC(=O)c3cc(O)c(O)c(O)c3)c2)[C@@H]1OC(=O)c1cc(O)c(O)c(OC(=O)c2cc(O)c(O)c(O)c2)c1)c1cc(O)c(O)c(OC(=O)c2cc(O)c(O)c(O)c2)c1 [Tannic acid],percent Bodipy-positive cells,[1],41.4 ± 7.8%
COc1cc(C(=O)NC2CCN(C)CC2)ccc1Nc1ncc2c(n1)N(C1CCCC1)C(C)CC(=O)N2C (stereo not drawn),percent Bodipy-positive cells,[4],11.1 ± 2.9%
same,percent Bodipy-positive cells,[5],15.4 ± 7.1%
same,percent Bodipy-positive cells,[6],23.8 ± 0.61%
same,percent Bodipy-positive cells,[1],52.8 ± 5.1%
N=C(N)c1ccc(OCCCCCOc2ccc(C(=N)N)cc2)cc1 [Pentamidine isethionate],percent Bodipy-positive cells,,25.6 ± 6.2%
N=C(N)c1ccc(OCCCCCOc2ccc(C(=N)N)cc2)cc1 [Pentamidine],percent Bodipy-positive cells,[2],14.3 ± 3.4%
same,percent Bodipy-positive cells,library stock concentration: 5.9 mM,13.2 ± 0.44%
same,percent Bodipy-positive cells,[1],45.8 ± 0.76%
CCCCCCCCCCCCCCCCCCCCCC(=O)NCCO [Docosanoyl Ethanolamide],percent Bodipy-positive cells,[3],6.92 ± 3.5%
Cn1c(NCCN(CCO)CCCc2ccc([N+](=O)[O-])cc2)cc(=O)n(C)c1=O [Nifekalant HCl],percent Bodipy-positive cells,[7],9.8 ± 0.81%
Cn1c(NCCN(CCO)CCCc2ccc([N+](=O)[O-])cc2)cc(=O)n(C)c1=O,percent Bodipy-positive cells,[1],8.71 ± 3.9%
Cc1[nH]c2ccccc2c1CCNC(=O)c1cccs1,percent Bodipy-positive cells,[2],38 ± 5%
same,percent Bodipy-positive cells,[1],42.4 ± 9.7%
CCC(=O)c1ccc2c(c1)N(CCCN(C)C)c1ccccc1S2.Cl [Propionylpromazine hydrochloride],percent Bodipy-positive cells,[1],93.1 ± 1.1%
CC(=O)Nc1cc2ccccc2oc1=O [3-Acetamidocoumarin],percent Bodipy-positive cells,,7.13 ± 2.4%
CC(C)n1cnc2c(NCc3ccccc3)nc(NCCCO)nc21 [Bohemine],percent Bodipy-positive cells,[4],8.53 ± 0.093%
same,percent Bodipy-positive cells,[5],9.1 ± 2.1%
same,percent Bodipy-positive cells,[6],16.3 ± 6.6%
same,percent Bodipy-positive cells,[2],11.3 ± 4.3%
same,percent Bodipy-positive cells,[1],29.4 ± 2.7%
N#Cc1c(O)c2c(-c3ccc(-c4ccccc4O)cc3)csc2[nH]c1=O,percent Bodipy-positive cells,[2],6.96 ± 0.91%
same,percent Bodipy-positive cells,[1],12.1% and 6.58%
COc1cc2c(Nc3ccc(Br)cc3F)ncnc2cc1OCC1CCN(C)CC1 [Vandetanib],percent Bodipy-positive cells,[6],79.7 ± 10%
same,percent Bodipy-positive cells,[1],96.8 ± 1.5%
Cc1nc2ccc(-n3ncc(C(=O)c4cc5ccccc5[nH]4)c3N)cc2[nH]1,percent Bodipy-positive cells,[4],10.39 ± 0.088%
same,percent Bodipy-positive cells,[5],12.1 ± 2.2%
same,percent Bodipy-positive cells,[6],11 ± 1.1%
CCCCC(=O)O[C@H]1CC[C@H]2[C@@H]3CCc4cc(O)ccc4[C@H]3CC[C@]12C,percent Bodipy-positive cells,[1],78.1 ± 23%
CCCCC(=O)O[C@H]1CC[C@H]2[C@@H]3CCc4cc(O)ccc4[C@H]3CC[C@]12C [Estradiol valerate],percent Bodipy-positive cells,[2],20.2 ± 5%
O=[N+]([O-])c1ccccc1S(=O)(=O)NCC1CCC(CNCC2CCc3ccccc3C2)CC1 (stereo not drawn) [NTNCB hydrochloride],percent Bodipy-positive cells,[1],96.4 ± 2%
Cc1ccc(Nc2c(F)cccc2Cl)c(CC(=O)O)c1 [Lumiracoxib],percent Bodipy-positive cells,[2],15.8 ± 8%
same,percent Bodipy-positive cells,[1],27.8 ± 6.7%
Cc1ccc(Nc2c(F)cccc2Cl)c(CC(=O)O)c1,percent Bodipy-positive cells,[1],34.5 ± 9.1%
COc1cc2ncnc(Nc3ccc(F)c(Cl)c3)c2cc1OCCCN1CCOCC1 [Iressa],percent Bodipy-positive cells,[1],65.1 ± 9.5%
CCCCCCCCCCCCCCCC(=O)OC [Palmitic Acid methyl ester],percent Bodipy-positive cells,[3],6.763 ± 0.042%
CCCCCC(O)C=CC1C(O)CC(O)C1CC=CCCCC(=O)O (stereo not drawn) [8-epi-Prostaglandin F2a],percent Bodipy-positive cells,[3],13.6 ± 13%
O=c1cc(-c2cccc3c2Sc2ccccc2S3)oc(N2CCOCC2)c1,percent Bodipy-positive cells,[4],8.13 ± 0.52%
same,percent Bodipy-positive cells,[5],12.5% and 11.9%
same,percent Bodipy-positive cells,[6],16% and 22.4%
same,percent Bodipy-positive cells,[2],8.09 ± 3.4%
CCCCC[C@H](O)/C=C/[C@@H]1[C@@H](C/C=C\CCCC(=O)N(C)C)[C@@H](O)C[C@H]1O [Prostaglandin F2.alpha. dimethyl amide],percent Bodipy-positive cells,[3],12.9 ± 2.1%
Fc1ccc(C(c2ccc(F)cc2)N2CCN(C/C=C/c3ccccc3)CC2)cc1 [Flunarizine 2HCl],percent Bodipy-positive cells,[2],22.3 ± 0.82%
same,percent Bodipy-positive cells,[1],45 ± 7.1%
Fc1ccc(C(c2ccc(F)cc2)N2CCN(C/C=C/c3ccccc3)CC2)cc1 [Flunarizine-2HCl],percent Bodipy-positive cells,[7],19.6 ± 1.1%
Fc1ccc(C(c2ccc(F)cc2)N2CCN(C/C=C/c3ccccc3)CC2)cc1 [Flunarizine hydrochloride],percent Bodipy-positive cells,[1],42.7 ± 1%
Fc1ccc(C(c2ccc(F)cc2)N2CCN(C/C=C/c3ccccc3)CC2)cc1 [Flunarizine dihydrochloride],percent Bodipy-positive cells,,37.8 ± 11%
Oc1ccc([C@H]2COc3cc(O)ccc3C2)cc1 [(?)-Equol],percent Bodipy-positive cells,[3],14.1 ± 3.4%
Oc1ccc([C@H]2COc3cc(O)ccc3C2)cc1 [Equol],percent Bodipy-positive cells,[2],8.91 ± 0.51%
same,percent Bodipy-positive cells,[1],26.3 ± 6.1%
CN1CCc2c(c3ccccc3n2Cc2ccccc2)C1 [Mebhydrolin naphthalenesulfonate],percent Bodipy-positive cells,[1],29.9 ± 2.1%
CCCCCCCCCCOc1ccc(OCC(=O)Cn2cc(C(=O)OC)c3cc(C(=O)O)ccc32)cc1,percent Bodipy-positive cells,[3],11.3 ± 2.8%
CCCCC[C@H](O)/C=C/[C@H]1[C@H](O)CC(=O)[C@H]1C/C=C\CCCC(=O)OC(C)C [8-iso Prostaglandin E2 isopropyl ester],percent Bodipy-positive cells,[3],13.6 ± 0.34%
